No constants are given. Whether binding was seen depends on the method and setting. Binding seen in cells or lysates may run through a third protein. Some entries that bind do so weakly or less than the wild type.
Target: forkhead box O3 (FOXO3) (not stated (endogenous in macrophages; RAW264.7 mouse or THP-1 human cells cultured)) (UniProt Q9WVH4)
Test: co-IP; lysates of ox-LDL (60 ug/mL)-loaded macrophages, untreated or infected with Pg or KDP136 (MOI = 100) for 24 h; specific primary antibodies 4 °C 12 h, protein A agarose beads 4 °C 4 h, four washes, western blot

Chains of the proteins cited; added tags and fusions are not shown.
UniProt Q9WVH4: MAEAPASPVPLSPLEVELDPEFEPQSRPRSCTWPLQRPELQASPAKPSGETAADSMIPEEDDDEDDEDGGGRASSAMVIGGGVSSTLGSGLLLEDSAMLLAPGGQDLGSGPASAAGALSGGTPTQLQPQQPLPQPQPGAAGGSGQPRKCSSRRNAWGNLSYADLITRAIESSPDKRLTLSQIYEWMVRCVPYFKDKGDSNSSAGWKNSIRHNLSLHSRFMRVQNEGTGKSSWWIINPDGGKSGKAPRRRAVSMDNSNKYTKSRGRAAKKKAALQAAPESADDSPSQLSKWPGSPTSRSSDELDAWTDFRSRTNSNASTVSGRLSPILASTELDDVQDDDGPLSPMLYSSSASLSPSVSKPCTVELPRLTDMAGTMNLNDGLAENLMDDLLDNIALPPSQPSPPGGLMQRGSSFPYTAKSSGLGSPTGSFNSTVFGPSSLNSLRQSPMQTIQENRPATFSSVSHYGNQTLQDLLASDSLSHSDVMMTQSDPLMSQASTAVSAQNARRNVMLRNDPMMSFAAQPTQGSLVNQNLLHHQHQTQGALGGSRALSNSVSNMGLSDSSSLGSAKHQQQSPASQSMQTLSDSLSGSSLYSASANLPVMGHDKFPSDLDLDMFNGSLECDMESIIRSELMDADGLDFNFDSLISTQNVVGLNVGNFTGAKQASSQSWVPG
UniProt P70288: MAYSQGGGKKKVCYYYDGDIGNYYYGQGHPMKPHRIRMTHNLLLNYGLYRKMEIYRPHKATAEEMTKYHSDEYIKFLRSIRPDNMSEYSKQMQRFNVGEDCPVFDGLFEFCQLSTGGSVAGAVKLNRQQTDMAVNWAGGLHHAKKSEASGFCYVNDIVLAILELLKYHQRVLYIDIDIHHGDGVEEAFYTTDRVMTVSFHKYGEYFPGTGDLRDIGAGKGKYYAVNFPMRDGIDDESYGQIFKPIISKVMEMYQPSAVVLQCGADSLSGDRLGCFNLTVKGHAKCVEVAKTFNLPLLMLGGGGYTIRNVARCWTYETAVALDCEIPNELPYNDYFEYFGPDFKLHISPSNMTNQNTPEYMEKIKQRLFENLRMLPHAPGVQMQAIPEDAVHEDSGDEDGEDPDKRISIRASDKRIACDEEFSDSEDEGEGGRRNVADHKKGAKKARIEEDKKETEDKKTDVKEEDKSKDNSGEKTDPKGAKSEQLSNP

binding: binds
Substance: histone deacetylase 2 (HDAC2) (from UniProt P70288 1-488)

Reference: publication PMC12098900
